In the test the target is T1, TRAF6 (mouse (endogenous in BMDMs)) (UniProt P70196).
T1 sequence: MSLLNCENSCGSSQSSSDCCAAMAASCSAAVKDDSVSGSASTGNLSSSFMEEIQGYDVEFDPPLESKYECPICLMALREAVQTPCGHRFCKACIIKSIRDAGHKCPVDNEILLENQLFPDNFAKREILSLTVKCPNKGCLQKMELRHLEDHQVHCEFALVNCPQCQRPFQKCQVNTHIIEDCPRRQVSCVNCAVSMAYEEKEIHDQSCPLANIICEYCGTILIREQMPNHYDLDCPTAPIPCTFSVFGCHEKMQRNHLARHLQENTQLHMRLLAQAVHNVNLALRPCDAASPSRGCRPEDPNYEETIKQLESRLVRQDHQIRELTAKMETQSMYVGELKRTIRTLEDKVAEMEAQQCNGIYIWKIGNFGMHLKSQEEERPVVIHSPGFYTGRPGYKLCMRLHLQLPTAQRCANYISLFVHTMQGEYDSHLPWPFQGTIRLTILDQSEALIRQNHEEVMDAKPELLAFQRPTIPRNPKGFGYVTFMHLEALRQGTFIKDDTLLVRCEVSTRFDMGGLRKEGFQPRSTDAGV
Nature of the test: co-IP; BMDMs stimulated with LPS (1 ug/ml) for indicated times; TRAF6 immunoprecipitated from cellular lysates, blot with anti-STAT3.

By UniProt entry, the sequences of proteins in these tests, tags left out.
UniProt P42227: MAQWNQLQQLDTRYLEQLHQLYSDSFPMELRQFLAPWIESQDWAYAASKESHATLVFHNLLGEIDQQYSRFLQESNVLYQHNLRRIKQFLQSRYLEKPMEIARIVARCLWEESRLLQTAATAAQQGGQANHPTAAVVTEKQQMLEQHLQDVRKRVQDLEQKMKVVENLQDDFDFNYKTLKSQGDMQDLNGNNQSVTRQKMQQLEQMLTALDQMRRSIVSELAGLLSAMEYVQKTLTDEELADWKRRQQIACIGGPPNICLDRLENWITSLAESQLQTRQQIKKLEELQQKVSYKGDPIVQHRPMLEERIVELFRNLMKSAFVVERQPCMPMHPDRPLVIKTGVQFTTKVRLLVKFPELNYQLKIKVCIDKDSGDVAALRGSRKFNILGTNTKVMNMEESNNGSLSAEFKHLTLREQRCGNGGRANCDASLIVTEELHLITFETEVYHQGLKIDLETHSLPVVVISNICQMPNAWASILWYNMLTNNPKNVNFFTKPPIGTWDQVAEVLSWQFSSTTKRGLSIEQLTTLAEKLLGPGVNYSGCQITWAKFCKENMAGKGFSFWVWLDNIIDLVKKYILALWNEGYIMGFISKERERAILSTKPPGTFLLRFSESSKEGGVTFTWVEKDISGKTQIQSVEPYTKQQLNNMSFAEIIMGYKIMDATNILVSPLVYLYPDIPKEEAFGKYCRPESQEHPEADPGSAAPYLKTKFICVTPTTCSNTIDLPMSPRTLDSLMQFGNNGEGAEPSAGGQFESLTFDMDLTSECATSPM

Results are given in words; binding and its absence hold for the method and conditions named. In cells and extracts the contact can be indirect. Some binding calls cover weakened binding; strength is not graded here.

As to STAT3 (from UniProt P42227 1-770), the binding entry is “binds”.

These data come from paper PMC7393113.
